Experimental data as given in paper PMC5366945.
Results are given in words; binding and its absence hold for the method and conditions named. Binding seen in cells or lysates may run through a third protein. Some binding calls cover weakened binding; strength is not graded here. Each block holds one substance with its values, some of them ahead of it.

By UniProt entry, the sequences of proteins in these tests, tags left out.
UniProt Q14457: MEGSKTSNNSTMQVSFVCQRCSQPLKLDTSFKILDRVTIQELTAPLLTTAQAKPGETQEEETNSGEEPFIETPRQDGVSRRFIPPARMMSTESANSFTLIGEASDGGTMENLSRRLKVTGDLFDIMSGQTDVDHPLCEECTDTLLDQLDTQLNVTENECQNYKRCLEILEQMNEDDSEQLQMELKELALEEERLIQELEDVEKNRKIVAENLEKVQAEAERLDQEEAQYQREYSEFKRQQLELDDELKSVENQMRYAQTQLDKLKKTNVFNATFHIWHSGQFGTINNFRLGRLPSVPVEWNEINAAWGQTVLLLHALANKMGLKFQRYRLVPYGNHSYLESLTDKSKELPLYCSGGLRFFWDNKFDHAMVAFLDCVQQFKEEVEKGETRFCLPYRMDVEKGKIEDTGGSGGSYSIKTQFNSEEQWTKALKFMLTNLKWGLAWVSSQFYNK
UniProt O88597: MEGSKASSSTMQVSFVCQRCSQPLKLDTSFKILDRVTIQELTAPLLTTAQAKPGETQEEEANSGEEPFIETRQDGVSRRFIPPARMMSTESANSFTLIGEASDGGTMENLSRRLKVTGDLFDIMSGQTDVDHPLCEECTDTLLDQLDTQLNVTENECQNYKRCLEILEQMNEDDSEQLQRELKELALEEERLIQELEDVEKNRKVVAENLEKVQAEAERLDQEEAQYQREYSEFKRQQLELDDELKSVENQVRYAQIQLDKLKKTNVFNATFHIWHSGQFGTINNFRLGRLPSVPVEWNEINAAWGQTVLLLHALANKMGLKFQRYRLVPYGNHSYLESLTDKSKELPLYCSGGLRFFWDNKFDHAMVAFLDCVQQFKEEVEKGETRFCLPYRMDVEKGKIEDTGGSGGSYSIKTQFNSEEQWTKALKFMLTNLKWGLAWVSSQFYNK
UniProt Q02880: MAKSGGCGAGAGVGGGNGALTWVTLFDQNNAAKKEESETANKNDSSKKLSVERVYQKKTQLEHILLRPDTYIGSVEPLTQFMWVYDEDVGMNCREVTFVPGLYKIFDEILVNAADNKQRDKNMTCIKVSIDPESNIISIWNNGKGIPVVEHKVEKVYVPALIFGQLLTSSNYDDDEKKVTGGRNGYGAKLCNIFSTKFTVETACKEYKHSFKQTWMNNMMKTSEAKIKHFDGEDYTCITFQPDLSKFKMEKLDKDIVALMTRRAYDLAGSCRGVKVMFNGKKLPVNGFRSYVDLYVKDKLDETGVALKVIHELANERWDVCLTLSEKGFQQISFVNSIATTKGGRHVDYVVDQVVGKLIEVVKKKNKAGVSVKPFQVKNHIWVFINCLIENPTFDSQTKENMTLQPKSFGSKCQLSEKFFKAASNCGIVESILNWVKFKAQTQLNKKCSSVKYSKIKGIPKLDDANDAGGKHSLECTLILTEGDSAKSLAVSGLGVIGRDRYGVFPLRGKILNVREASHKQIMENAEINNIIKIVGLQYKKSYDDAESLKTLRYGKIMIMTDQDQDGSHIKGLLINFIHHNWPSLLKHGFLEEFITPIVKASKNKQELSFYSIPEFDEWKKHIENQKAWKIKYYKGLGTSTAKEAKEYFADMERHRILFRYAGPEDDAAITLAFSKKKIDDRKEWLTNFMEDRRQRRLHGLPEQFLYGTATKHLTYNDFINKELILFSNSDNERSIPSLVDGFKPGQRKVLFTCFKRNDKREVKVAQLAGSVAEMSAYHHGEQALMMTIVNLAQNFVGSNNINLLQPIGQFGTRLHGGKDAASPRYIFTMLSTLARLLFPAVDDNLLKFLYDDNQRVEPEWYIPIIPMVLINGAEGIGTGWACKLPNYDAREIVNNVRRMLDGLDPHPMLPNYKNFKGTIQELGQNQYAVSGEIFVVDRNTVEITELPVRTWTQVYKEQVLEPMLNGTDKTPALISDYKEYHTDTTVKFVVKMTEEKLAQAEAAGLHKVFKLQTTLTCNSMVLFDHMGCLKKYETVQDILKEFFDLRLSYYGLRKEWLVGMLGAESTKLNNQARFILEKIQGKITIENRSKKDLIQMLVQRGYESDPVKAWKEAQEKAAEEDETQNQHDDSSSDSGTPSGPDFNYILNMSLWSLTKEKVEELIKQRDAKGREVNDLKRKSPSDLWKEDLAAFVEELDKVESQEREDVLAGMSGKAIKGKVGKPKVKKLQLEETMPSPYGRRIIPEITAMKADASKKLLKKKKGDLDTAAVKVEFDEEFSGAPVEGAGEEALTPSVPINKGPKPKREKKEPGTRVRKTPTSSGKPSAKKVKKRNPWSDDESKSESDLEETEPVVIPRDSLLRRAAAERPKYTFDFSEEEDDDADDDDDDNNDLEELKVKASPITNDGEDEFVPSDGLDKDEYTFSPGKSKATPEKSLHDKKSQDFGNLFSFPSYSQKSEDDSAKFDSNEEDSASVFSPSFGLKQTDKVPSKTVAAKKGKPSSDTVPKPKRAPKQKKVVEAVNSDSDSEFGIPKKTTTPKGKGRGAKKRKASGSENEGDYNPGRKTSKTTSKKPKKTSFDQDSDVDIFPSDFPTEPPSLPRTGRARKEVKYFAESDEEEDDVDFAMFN
UniProt Q64511: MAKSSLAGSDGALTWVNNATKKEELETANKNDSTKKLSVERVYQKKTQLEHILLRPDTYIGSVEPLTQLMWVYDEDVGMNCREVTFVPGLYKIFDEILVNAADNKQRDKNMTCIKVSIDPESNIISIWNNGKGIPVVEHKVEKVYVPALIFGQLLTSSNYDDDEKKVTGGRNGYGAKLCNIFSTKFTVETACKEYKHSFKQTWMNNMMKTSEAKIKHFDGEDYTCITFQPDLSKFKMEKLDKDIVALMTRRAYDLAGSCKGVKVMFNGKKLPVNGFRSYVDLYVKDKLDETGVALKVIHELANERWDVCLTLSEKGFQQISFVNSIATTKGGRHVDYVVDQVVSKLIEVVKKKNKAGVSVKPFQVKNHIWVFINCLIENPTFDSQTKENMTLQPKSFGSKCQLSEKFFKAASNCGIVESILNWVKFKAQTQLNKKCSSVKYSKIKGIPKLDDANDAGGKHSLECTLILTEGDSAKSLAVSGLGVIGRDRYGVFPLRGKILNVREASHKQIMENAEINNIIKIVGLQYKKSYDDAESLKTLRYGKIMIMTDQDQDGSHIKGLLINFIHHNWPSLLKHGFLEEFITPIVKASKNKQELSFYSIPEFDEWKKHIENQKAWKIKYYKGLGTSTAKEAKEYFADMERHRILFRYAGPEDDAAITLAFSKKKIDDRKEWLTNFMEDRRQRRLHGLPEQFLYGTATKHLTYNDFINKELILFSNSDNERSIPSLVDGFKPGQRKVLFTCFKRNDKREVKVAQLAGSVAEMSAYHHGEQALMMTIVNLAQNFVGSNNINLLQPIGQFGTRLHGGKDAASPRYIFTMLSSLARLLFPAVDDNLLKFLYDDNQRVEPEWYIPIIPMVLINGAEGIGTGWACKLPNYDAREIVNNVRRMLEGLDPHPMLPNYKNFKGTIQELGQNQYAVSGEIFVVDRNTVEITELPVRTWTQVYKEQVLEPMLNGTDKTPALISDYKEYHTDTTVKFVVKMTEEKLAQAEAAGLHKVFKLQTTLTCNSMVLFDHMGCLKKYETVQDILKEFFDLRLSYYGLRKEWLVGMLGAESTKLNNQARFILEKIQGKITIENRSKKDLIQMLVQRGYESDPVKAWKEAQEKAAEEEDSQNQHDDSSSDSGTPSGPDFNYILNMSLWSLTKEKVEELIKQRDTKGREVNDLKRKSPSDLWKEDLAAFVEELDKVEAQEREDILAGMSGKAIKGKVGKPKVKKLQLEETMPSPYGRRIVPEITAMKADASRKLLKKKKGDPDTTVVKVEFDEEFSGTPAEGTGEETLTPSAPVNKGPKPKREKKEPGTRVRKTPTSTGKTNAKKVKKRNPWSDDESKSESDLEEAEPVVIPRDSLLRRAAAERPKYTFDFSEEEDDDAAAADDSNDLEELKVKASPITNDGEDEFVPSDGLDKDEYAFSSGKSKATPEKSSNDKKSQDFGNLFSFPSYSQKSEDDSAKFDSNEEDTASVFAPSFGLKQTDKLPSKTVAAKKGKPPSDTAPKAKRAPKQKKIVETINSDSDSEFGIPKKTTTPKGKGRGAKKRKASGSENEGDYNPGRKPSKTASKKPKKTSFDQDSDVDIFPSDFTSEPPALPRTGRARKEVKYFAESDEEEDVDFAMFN

Assays:
[1] = target: Flag-tagged Beclin 1 (overexpressed in 293T cells) (not stated (human or mouse cDNA cloned)) (UniProt Q14457); assay: co-IP; 293T cells overexpressing Flag-tagged Beclin 1, treated with or without IR; immunoprecipitation, blot for DNA topoisomerase IIβ
[2] = target: Beclin 1 (endogenous, HeLa) (human (endogenous in HeLa)) (UniProt Q14457); assay: co-IP; endogenous proteins in HeLa cells treated with or without IR; co-immunoprecipitation and immunoblotting
[3] = target: Flag-tagged Beclin 1 (expressed in NIH3T3 cells) (not stated (human or mouse cDNA cloned)) (UniProt O88597); assay: co-IP; NIH3T3 cells overexpressing Flag-tagged Beclin 1, treated with or without IR; immunoprecipitation, blot for DNA topoisomerase IIβ
[4] = target: Flag-tagged Beclin 1 (expressed in NIH3T3 cells) (not stated (human or mouse cDNA cloned)) (UniProt O88597); assay: co-IP; nuclear lysates of NIH3T3 cells stably expressing Flag-tagged Beclin 1 or vector; immunoprecipitation with anti-Flag antibodies, immunoblot

binding [1]: binds
Substance: DNA topoisomerase IIβ (endogenous, 293T) (from UniProt Q02880 1-1626)

binding [2]: binds
Substance: DNA topoisomerase IIβ (endogenous, HeLa) (from UniProt Q02880 1-1626)

binding [3]: binds | binding [4]: binds
Substance: DNA topoisomerase IIβ (endogenous, NIH3T3) (from UniProt Q64511 1-1612)
